In publication PMC10548720:
No constants are given. Whether binding was seen depends on the method and setting. Binding seen in cells or lysates may run through a third protein. Some binding calls cover weakened binding; strength is not graded here. For some assays here: Sequences can lack the tags named with a protein.

Columns and labels:
[1] = target: Growth factor receptor binding protein-10 (Grb10), endogenous in 143B cells (human (endogenous in 143B)) (UniProt Q13322); assay: co-IP; endogenous proteins in 143B cell lysate; IP lysate 50 mM Tris HCl, 1 mM EDTA, 150 mM NaCl; protein A/G beads and antibodies, 4 °C overnight; western blot
[2] = target: HA-tagged Grb10 (UniProt Q13322); assay: co-IP; 293T cells transfected with flag-RILP and HA-Grb10 plasmids; IP lysate 50 mM Tris HCl, 1 mM EDTA, 150 mM NaCl; protein A/G beads and antibodies, 4 °C overnight; western blot

Substance | binding [1] | binding [2]
Rab-interacting lysosomal protein (RILP), endogenous in 143B cells (from UniProt Q96NA2 1-401) | binds | –
flag-tagged RILP (from UniProt Q96NA2 1-401) | – | binds
